The list shows a part of the results.
Columns and labels:
Assay in all cases: log2 fold change, soluble protein after heating vs DMSO (PISA); higher = thermal stabilisation; K562 cells, 10 uM, 30 min; active = over 0.2 and 3.5 SD of the protein, either way, in both replicates (recomputed)
[1] = compound: CC[C@@H]1C(=O)N(C)c2cnc(Nc3ccc(C(=O)NC4CCN(C)CC4)cc3OC)nc2N1C1CCCC1
How it was run: (§1)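 Aliquots of K562 cells (2×10^6 cells/mL) treated with 10 μM compound for 30 min were heated for 3 min over 48°C-58°C. After pooling and extraction in PBS with 0.5% NP-40 at 4°C, soluble protein from a 21,000xg, 90 min spin was quantified by TMTpro 16plex LC-MS/MS with channel sums equalised. Thermal stability is expressed against control samples, from duplicates, as a log2 fold change.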

By UniProt entry, the sequences of proteins in these tests, tags left out. Where a name states a change or a piece, a line headed by the entry shows the natural chain unless it says otherwise.
UniProt Q96BD8: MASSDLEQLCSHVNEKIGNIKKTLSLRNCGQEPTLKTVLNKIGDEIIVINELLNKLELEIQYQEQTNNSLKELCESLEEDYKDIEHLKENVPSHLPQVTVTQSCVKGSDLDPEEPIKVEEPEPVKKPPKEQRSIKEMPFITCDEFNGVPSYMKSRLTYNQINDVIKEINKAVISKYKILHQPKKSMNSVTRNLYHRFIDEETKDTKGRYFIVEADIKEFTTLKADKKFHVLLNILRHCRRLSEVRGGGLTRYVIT
UniProt Q01105, whole entry, looked up: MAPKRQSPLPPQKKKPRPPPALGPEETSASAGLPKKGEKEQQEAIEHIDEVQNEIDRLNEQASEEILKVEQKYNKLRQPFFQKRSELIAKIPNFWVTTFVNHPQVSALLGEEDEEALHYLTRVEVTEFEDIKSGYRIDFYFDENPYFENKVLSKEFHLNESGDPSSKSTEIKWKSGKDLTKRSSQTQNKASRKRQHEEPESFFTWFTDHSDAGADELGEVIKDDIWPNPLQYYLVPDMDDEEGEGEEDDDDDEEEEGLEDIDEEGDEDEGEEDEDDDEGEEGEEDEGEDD
UniProt Q53H47: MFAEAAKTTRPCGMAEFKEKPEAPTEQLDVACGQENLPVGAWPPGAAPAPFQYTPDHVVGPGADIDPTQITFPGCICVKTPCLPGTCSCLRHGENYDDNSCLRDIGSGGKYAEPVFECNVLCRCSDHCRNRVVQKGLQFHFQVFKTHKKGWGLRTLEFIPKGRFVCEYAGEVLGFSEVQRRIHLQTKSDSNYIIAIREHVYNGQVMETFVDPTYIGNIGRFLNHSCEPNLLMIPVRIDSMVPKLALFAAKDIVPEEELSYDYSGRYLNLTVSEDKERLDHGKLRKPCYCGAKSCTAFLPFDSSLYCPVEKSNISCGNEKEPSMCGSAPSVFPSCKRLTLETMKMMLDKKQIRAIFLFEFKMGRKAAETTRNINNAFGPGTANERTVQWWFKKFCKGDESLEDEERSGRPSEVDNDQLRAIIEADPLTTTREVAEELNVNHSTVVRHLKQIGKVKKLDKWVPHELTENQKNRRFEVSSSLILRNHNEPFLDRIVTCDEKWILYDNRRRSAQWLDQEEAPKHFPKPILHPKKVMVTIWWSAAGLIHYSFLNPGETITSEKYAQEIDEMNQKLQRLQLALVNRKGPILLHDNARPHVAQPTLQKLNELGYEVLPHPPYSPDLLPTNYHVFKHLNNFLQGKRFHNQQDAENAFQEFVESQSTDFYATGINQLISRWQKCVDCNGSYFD
UniProt Q8N196: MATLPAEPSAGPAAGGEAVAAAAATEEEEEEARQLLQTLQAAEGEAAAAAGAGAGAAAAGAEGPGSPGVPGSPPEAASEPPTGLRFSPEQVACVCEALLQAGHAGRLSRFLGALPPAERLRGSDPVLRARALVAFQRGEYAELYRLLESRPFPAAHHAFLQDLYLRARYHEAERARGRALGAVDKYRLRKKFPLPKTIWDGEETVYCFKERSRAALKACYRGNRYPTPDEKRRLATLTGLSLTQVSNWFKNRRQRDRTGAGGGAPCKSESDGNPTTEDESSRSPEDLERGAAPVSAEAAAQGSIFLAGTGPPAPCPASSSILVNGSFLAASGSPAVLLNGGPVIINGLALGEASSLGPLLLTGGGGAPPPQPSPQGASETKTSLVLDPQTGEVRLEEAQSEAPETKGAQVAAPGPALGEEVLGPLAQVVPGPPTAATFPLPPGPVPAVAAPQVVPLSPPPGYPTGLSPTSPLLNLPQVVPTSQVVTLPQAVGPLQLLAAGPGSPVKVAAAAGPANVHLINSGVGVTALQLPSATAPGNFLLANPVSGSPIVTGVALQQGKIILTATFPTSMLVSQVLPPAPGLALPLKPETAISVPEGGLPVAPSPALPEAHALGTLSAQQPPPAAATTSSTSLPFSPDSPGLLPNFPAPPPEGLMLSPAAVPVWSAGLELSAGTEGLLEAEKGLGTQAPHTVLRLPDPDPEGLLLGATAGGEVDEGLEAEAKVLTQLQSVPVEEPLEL
UniProt P60059: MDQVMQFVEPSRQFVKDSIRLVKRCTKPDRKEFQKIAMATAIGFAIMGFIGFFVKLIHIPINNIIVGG
UniProt Q8IW75: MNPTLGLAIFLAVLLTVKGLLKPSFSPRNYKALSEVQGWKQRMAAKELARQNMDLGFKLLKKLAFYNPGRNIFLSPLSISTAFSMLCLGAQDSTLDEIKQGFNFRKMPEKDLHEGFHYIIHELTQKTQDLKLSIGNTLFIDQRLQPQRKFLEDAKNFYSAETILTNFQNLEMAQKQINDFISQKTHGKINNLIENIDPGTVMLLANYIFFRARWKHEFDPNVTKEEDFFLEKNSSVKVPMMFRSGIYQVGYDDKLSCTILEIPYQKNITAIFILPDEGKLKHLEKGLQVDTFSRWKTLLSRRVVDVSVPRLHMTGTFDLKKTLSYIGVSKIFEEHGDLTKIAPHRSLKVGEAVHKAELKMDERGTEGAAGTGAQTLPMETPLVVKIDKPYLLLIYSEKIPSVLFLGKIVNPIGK
UniProt O75635: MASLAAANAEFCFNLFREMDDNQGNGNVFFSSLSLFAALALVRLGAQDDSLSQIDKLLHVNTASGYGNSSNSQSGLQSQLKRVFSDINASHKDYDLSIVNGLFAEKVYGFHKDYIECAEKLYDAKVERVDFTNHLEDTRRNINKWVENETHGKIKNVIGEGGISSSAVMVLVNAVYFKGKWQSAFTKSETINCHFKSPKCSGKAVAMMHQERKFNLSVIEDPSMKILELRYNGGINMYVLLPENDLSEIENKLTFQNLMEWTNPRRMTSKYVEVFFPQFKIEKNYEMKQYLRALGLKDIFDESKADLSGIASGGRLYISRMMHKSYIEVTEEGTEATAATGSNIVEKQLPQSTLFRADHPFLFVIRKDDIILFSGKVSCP
UniProt Q99961: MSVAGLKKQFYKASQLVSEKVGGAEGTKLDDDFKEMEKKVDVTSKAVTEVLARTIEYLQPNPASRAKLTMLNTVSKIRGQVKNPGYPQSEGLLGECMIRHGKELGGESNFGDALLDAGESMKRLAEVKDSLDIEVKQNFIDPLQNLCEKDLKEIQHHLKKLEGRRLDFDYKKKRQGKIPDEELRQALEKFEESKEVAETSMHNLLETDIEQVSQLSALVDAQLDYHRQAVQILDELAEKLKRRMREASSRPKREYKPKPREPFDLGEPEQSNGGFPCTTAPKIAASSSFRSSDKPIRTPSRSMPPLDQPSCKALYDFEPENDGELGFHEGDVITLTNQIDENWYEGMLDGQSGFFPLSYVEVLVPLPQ
UniProt Q9Y6D0, whole entry, looked up: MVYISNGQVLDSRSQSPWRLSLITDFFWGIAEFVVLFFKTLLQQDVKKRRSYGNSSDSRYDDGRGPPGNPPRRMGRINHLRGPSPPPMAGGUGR
UniProt Q9BWJ5: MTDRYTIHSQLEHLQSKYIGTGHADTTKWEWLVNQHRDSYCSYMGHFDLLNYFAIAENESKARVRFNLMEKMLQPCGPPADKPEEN
UniProt Q96JX3: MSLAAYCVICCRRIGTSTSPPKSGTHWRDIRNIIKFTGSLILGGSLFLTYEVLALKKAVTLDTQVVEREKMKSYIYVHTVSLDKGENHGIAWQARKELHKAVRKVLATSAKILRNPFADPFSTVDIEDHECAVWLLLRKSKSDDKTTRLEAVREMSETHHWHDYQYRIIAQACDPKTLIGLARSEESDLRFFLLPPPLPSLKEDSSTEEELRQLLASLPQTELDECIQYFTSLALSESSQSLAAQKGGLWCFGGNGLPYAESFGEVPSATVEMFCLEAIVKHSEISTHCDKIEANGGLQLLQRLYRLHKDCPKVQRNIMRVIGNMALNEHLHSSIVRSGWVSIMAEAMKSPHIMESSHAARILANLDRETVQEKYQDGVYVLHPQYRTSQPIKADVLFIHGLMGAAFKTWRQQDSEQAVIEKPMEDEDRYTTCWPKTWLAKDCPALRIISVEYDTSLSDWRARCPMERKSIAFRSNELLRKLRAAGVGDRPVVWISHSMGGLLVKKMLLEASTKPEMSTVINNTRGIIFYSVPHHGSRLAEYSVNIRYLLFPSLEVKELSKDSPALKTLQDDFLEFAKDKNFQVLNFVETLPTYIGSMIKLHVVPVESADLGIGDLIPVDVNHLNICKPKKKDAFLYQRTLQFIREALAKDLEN
UniProt Q8TD22: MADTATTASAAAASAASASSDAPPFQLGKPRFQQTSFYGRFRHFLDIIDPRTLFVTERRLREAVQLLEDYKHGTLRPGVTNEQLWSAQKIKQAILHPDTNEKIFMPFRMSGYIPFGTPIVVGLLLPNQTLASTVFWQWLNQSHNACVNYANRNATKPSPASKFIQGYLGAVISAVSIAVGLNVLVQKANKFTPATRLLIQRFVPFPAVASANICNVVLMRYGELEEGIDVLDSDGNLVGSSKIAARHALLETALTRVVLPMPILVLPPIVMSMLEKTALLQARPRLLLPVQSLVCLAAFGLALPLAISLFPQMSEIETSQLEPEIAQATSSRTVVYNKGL
UniProt P01011: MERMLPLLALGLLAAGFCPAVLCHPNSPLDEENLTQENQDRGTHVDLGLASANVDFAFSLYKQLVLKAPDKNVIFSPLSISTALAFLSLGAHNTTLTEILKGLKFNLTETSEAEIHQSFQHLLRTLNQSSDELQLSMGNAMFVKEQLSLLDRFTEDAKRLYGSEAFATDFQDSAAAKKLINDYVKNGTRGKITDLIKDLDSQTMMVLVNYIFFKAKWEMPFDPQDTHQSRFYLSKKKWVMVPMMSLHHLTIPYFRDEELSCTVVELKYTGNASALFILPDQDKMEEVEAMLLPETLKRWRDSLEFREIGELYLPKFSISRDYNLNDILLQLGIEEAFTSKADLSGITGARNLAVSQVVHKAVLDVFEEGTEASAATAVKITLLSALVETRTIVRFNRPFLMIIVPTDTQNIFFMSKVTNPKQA
UniProt Q9NRX5: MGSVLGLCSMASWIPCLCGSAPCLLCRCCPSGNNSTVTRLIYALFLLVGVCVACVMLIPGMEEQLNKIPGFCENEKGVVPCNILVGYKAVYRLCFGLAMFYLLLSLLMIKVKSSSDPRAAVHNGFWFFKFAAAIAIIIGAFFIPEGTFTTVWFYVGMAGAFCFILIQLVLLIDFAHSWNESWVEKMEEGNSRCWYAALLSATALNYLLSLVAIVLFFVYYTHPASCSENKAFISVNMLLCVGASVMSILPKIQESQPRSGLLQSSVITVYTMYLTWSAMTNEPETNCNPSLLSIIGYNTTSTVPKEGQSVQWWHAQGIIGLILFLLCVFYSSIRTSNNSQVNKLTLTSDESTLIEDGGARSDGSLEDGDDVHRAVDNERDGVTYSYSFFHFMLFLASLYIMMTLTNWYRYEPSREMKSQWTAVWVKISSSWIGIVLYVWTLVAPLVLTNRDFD
UniProt Q9NP31, whole entry, looked up: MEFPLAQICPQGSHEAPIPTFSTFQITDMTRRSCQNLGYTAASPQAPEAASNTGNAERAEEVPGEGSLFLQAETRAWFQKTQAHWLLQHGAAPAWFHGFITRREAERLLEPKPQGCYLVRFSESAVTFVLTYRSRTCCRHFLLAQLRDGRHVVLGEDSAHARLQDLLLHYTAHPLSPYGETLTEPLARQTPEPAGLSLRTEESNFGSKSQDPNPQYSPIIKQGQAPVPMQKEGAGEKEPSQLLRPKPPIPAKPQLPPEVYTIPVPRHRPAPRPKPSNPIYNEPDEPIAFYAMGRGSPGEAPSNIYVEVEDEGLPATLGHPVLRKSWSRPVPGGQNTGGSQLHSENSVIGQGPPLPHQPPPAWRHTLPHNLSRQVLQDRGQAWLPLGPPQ
UniProt Q8IZQ5, whole entry, looked up: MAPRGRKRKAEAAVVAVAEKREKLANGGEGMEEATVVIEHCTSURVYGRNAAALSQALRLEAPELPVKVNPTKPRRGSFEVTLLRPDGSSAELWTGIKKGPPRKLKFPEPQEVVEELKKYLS
UniProt Q8WV19: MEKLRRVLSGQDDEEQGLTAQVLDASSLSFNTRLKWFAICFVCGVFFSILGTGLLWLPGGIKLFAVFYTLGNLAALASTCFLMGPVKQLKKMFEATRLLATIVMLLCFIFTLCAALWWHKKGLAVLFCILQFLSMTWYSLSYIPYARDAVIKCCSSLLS
UniProt P58004: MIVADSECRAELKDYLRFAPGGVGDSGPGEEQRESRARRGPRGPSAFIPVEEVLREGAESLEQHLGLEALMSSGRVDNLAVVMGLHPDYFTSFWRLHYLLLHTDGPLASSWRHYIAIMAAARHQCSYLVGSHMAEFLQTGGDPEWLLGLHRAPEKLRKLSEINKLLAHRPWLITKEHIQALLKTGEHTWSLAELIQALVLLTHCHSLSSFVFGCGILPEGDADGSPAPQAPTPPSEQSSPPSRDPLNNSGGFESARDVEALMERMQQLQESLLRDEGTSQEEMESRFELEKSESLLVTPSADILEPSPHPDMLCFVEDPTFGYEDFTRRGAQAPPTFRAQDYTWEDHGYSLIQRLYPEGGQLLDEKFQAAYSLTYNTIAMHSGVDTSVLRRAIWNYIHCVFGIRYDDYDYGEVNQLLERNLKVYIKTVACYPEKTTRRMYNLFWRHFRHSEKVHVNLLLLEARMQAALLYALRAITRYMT

volasertib = compound: CC[C@@H]1C(=O)N(C)c2cnc(Nc3ccc(C(=O)N[C@H]4CC[C@H](N5CCN(CC6CC6)CC5)CC4)cc3OC)nc2N1C(C)C [volasertib]
How it was run: as §1

[2] = compound: CC[C@H](C)N1C=C(C2=C(C=C(C=C21)C3=CN=C(C=C3)N4CCNCC4)C(=O)NCC5=C(C=C(NC5=O)C)C)C
How it was run: as §1

epoxomicin = compound: CC[C@H](C)[C@@H](C(=O)N[C@@H]([C@@H](C)O)C(=O)N[C@@H](CC(C)C)C(=O)[C@]1(CO1)C)NC(=O)[C@H]([C@@H](C)CC)N(C)C(=O)C [epoxomicin]
How it was run: as §1

[3] = compound: CCn1cc(-c2ccnc3[nH]c(-c4cccc(CN(C)C)c4)cc23)c(-c2ccc(NC(=O)N(C)C)cc2)n1
How it was run: as §1

[4] = compound: CN(C)CC(=O)Nc1ccc2[nH]c(=O)c3ccccc3c2c1
How it was run: as §1

[5] = compound: CN1C2=C(C3=C1C(=O)N(N=C3)CC4=CC(=CC=C4)N)SC(=C2)S(=O)C
How it was run: as §1

[6] = compound: CN1CCC(CNc2ccc3ncc(-c4cccc(OC(F)(F)F)c4)n3n2)CC1
How it was run: as §1

saracatinib = compound: CN1CCN(CCOc2cc(OC3CCOCC3)c3c(Nc4c(Cl)ccc5c4OCO5)ncnc3c2)CC1 [saracatinib]
How it was run: as §1

sotrastaurin = compound: CN1CCN(c2nc(C3=C(c4c[nH]c5ccccc45)C(=O)NC3=O)c3ccccc3n2)CC1 [sotrastaurin]
How it was run: as §1

alvocidib = compound: CN1CC[C@H](c2c(O)cc(O)c3c(=O)cc(-c4ccccc4Cl)oc23)[C@H](O)C1 [alvocidib]
How it was run: as §1

defactinib = compound: CNC(=O)c1ccc(Nc2ncc(C(F)(F)F)c(NCc3nccnc3N(C)S(C)(=O)=O)n2)cc1 [defactinib]
How it was run: as §1

rucaparib = compound: CNCc1ccc(-c2[nH]c3cc(F)cc4c3c2CCNC4=O)cc1 [rucaparib]
How it was run: as §1

[7] = compound: CNc1nc(-c2ccc3c(N)n[nH]c3c2)cc(N2C[C@@H](C(=O)NC3CCCCC3)CC[C@H]2C)n1
How it was run: as §1

encorafenib = compound: COC(=O)N[C@@H](C)CNc1nccc(-c2cn(C(C)C)nc2-c2cc(Cl)cc(NS(C)(=O)=O)c2F)n1 [encorafenib]
How it was run: as §1

[8] = compound: COC(=O)[C@H](CCSC)NC(=O)C1=C(C=C(C=C1)NC[C@H](CS)N)C2=CC=CC=C2
How it was run: as §1

[9] = compound: CCn1c(C(=O)N(C2CC2)C2CC2)cc2c3c(ncn3C)c(Nc3cc(C)n(C)n3)nc21
How it was run: as §1

rosiglitazone = compound: CN(CCOC1=CC=C(C=C1)C[C@H]2C(=O)NC(=O)S2)C3=CC=CC=N3 (racemic) [rosiglitazone]
How it was run: as §1

Tubastatin A = compound: CN1CCc2c(c3ccccc3n2Cc2ccc(C(=O)NO)cc2)C1 [Tubastatin A]
How it was run: as §1

[10] = compound: CNC(=O)C1=CC=CC=C1NC2=NC(=NC=C2Cl)NC3=C(C=C(C=C3)N4CCOCC4)OC
How it was run: as §1

Target | log2 fold change [1] | log2 fold change (volasertib) | log2 fold change [2] | log2 fold change (epoxomicin) | log2 fold change [3] | log2 fold change [4] | log2 fold change [5] | log2 fold change [6] | log2 fold change (saracatinib) | log2 fold change (sotrastaurin) | log2 fold change (alvocidib) | log2 fold change (defactinib) | log2 fold change (rucaparib) | log2 fold change [7] | log2 fold change (encorafenib) | log2 fold change [8] | log2 fold change [9] | log2 fold change (rosiglitazone) | log2 fold change (Tubastatin A) | log2 fold change [10]
SKA1 (UniProt Q96BD8) | inactive: 0.054 | inactive: -0.036 | inactive: -0.006 | inactive: -0.173 | inactive: 0.012 | inactive: -0.005 | inactive: 0.324 | inactive: 0.128 | inactive: -0.174 | inactive: -0.154 | inactive: 0.008 | inactive: -0.053 | inactive: 0.489 | inactive: -0.17 | inactive: 0.253 | inactive: -0.009 |  |  |  | 
SET isoform 2 (UniProt Q01105) | inactive: -0.023 | inactive: 0.083 | inactive: -0.015 | inactive: -0.038 | inactive: 0 | inactive: -0.002 | inactive: -0.077 | inactive: -0.012 | inactive: 0.064 | inactive: 0.024 | inactive: -0.025 | inactive: 0.009 | inactive: -0.019 | inactive: 0 | inactive: -0.004 | inactive: 0.024 | inactive: 0.015 | inactive: -0.008 | inactive: 0.016 | inactive: -0.011
SETMAR (UniProt Q53H47) | inactive: -0.071 | inactive: -0.045 | inactive: 0.058 | inactive: 0.045 | inactive: 0.015 | inactive: 0.012 | inactive: -0.045 | inactive: 0.108 | inactive: -0.007 | inactive: -0.132 |  | inactive: -0.026 | inactive: -0.004 | inactive: 0.005 | inactive: 0.198 | inactive: -0.084 |  |  | inactive: -0.402 | inactive: 0.006
SIX5 (UniProt Q8N196) | inactive: -0.055 |  |  |  | inactive: 0.034 |  | inactive: -0.06 | inactive: -0.037 | inactive: -0.018 |  | inactive: -0.083 |  | inactive: -0.005 | inactive: -0.063 | inactive: -0.032 |  |  | inactive: 0.077 |  | 
SEC61G (UniProt P60059) | inactive: 0.2 |  | inactive: -0.154 | inactive: 0.115 |  |  | inactive: 0.052 |  | inactive: -0.045 | inactive: -0.002 |  |  | inactive: -0.332 | inactive: 0.068 | inactive: 0.158 |  | inactive: 0.002 | inactive: 0.001 |  | inactive: 0.173
SERPINA12 (UniProt Q8IW75) | inactive: 0.415 |  | inactive: 0.002 | inactive: 1.02 |  | inactive: 0.936 | inactive: 0.338 |  | inactive: -0.356 | inactive: 0.183 |  | inactive: 0.022 | inactive: -0.123 | inactive: 0.286 | inactive: -0.231 | inactive: -0.053 |  |  | inactive: -0.086 | 
SERPINB7 (UniProt O75635) | inactive: 0.073 |  |  |  | inactive: -0.028 | inactive: 0.031 | inactive: 0.501 | inactive: -0.012 | inactive: -0.053 |  |  | inactive: -0.017 | inactive: -0.152 | inactive: -0.058 | inactive: -0.137 | inactive: 0.056 |  | inactive: 0.158 | inactive: 0.191 | 
SH3GL1 (UniProt Q99961) | inactive: -0.137 | active: -0.459 | inactive: 0.082 | inactive: 0.008 | inactive: -0.028 | inactive: 0.091 | inactive: -0.006 | inactive: -0.196 | inactive: -0.157 | inactive: -0.163 |  | inactive: -0.116 | inactive: 0.022 | inactive: 0.054 | inactive: 0.062 | inactive: -0.043 |  |  | inactive: 0.092 | inactive: -0.035
SIK3 (UniProt H0Y4E8) | inactive: 0.032 | inactive: -0.109 | inactive: -0.02 |  | inactive: -0.065 | inactive: -0.111 | inactive: -0.019 | inactive: -0.071 | inactive: 0.027 | inactive: 0.157 |  | inactive: -0.072 | inactive: 0.023 | inactive: -0.114 | inactive: 0.056 | inactive: 0.01 |  |  | inactive: 0.064 | inactive: -0.009
SELENOK (UniProt Q9Y6D0) | inactive: 0.283 |  | inactive: -0.079 | inactive: -0.176 | inactive: -0.041 | inactive: 0.029 |  | inactive: -0.087 |  | inactive: -0.007 | inactive: 0.033 | inactive: -0.043 | inactive: -0.169 |  | inactive: 0.057 | inactive: -0.094 | inactive: 0.042 | inactive: 0.066 | inactive: 0.036 | inactive: -0.04
SF3B5 (UniProt Q9BWJ5) | inactive: 0.089 | inactive: -0.14 | inactive: -0.057 | active: 0.426 | inactive: 0.035 | inactive: 0.006 | inactive: 0.082 | inactive: 0.035 | inactive: -0.382 | inactive: 0.055 |  | inactive: -0.039 | inactive: 0.086 | inactive: -0.015 | inactive: -0.025 | inactive: 0.061 |  |  | inactive: 0.048 | inactive: 0.023
SERAC1 (UniProt Q96JX3) | inactive: -0.033 |  | inactive: 0.002 |  |  |  |  |  |  |  | inactive: -0.027 |  | inactive: -0.016 |  | inactive: 0.035 |  | inactive: -0.147 |  |  | inactive: 0.074
SFXN5 (UniProt Q8TD22) | inactive: 0.048 | inactive: -0.034 | inactive: 0.022 | inactive: -0.009 | inactive: -0.039 | inactive: 0.006 | inactive: -0.209 | inactive: 0.063 | inactive: 0.106 | inactive: -0.014 |  | inactive: 0.017 | inactive: -0.043 | inactive: -0.038 | inactive: -0.053 | inactive: 0.045 |  |  | inactive: -0.053 | inactive: 0.019
SERPINA3 (UniProt P01011) | inactive: 0.001 |  |  | inactive: -0.364 |  |  |  |  |  |  |  |  | inactive: -0.191 |  | inactive: -0.068 |  |  |  |  | 
SERINC1 (UniProt Q9NRX5) | inactive: 0.001 | inactive: 0.025 | inactive: -0.223 | inactive: -0.034 |  | inactive: -0.023 | inactive: -0.194 |  | inactive: 0.093 | inactive: -0.053 |  | inactive: 0.031 | inactive: -0.095 | inactive: -0.088 | inactive: -0.062 | inactive: 0.055 |  |  | inactive: -0.128 | inactive: -0.008
SH2D2A isoform 2 (UniProt Q9NP31) | inactive: 0.025 | inactive: -0.033 | inactive: 0.063 |  | inactive: -0.008 |  | inactive: 0.127 | inactive: 0.175 | inactive: -0.033 |  | inactive: -0.055 |  | inactive: -0.089 | inactive: 0.015 | inactive: -0.135 |  | inactive: -0.007 |  |  | inactive: 0.021
SEPTIN2 (UniProt B5MCX3) | inactive: 0.094 |  |  |  |  | inactive: -0.141 |  |  |  |  |  | inactive: 0 | inactive: 0.007 |  | inactive: -0.086 | inactive: 0.097 |  |  | inactive: -0.04 | 
SELENOH (UniProt Q8IZQ5) | inactive: 0.001 | inactive: 0.01 | inactive: -0.05 | inactive: 0.058 | inactive: -0.051 | inactive: 0.041 | inactive: 0.084 | inactive: 0.065 | inactive: 0.124 | inactive: -0.171 |  | inactive: -0.026 | inactive: -0.011 | inactive: 0.022 | inactive: 0.011 | inactive: -0.038 |  |  | inactive: 0.032 | inactive: -0.063
SIGIRR (UniProt H0YDR5) | inactive: 0.111 |  |  |  | inactive: -0.022 |  |  | inactive: -0.136 |  |  |  |  | inactive: -0.169 |  | inactive: -0.118 |  | inactive: -0.095 |  |  | inactive: 0.047
SFT2D1 (UniProt Q8WV19) | inactive: 0.042 | inactive: 0.288 |  |  |  |  |  |  |  | inactive: 0.12 |  |  | inactive: -0.088 |  | inactive: 0.053 |  |  |  |  | 
SESN2 (UniProt P58004) | inactive: -0.244 | active: -0.522 | inactive: 0.165 | inactive: 0.083 | inactive: -0.292 | inactive: 0.115 | inactive: 0.015 | inactive: -0.247 | inactive: -0.009 | inactive: -0.222 |  | inactive: -0.229 | inactive: 0.044 | inactive: 0.09 | inactive: 0.041 | inactive: -0.121 |  |  | inactive: 0.131 | inactive: 0.039

Quoted from the listing.
Entry of SEPTIN2 (UniProt B5MCX3) under log2 fold change (rucaparib): inactive: 0.007
Entry of SELENOH (UniProt Q8IZQ5) under log2 fold change (epoxomicin): inactive: 0.058
